Taken from: PubChem BioAssay AID1259284 (Sanger Institute, 2017)
In all, the deposit lists 794 reagents; this is a random part of them. Over the whole deposit, 16 (2%) were called active. 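Calls concern knock-down without drug only; drug synergy was judged apart, with scores above 0.15 taken as synergy.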 A number with no mark means an inactive call. Not all columns of the deposit are shown. Reagent sequences are not shown. Not given: the amount of reagent, the time to read-out.

- Test: 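siRNA screen across the kinome seeking partners for BYL719, cetuximab or trametinib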 (primary screen)
- Cell system: SW48 human colorectal cancer cells
- Knock-down reagent: siRNA pool against human genes
- Conditions: anchor drug BYL719 at 1 µM, cetuximab at 5 µg/ml or trametinib at 10 nM, or DMSO vehicle alone
- Measurement: 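Viability scaled to non-targeting control pool, robust z-score from controls, and synergy scores for each drug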
- Reading the numbers: robust z-score, no drug: higher = more cells survive knock-down
- Rule for the call: 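a knock-down is essential if viability without drug gives a robust z-score under -3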
- Meaning of the calls: active = essential without drug; inactive = no change without drug

STK40 (serine/threonine kinase 40) — robust z-score, no drug: 0.426
SRPK2 (SRSF protein kinase 2) — robust z-score, no drug: 0.426
OBSCN — robust z-score, no drug: 0.426
ULK4 (unc-51 like kinase 4) — robust z-score, no drug: 0.426
PANK4 (pantothenate kinase 4 (inactive)) — robust z-score, no drug: -2.17
CERT1 (ceramide transporter 1) — robust z-score, no drug: -0.262
CASP8 (caspase 8) — robust z-score, no drug: 0.426
STK38 (serine/threonine kinase 38) — robust z-score, no drug: -2.96
BCR (BCR activator of RhoGEF and GTPase) — robust z-score, no drug: 0.17
SCYL3 (SCY1 like pseudokinase 3) — robust z-score, no drug: 0.426
SLK (STE20 like kinase) — robust z-score, no drug: 0.426
PRP4K (pre-mRNA processing factor kinase PRP4K) — robust z-score, no drug: 0.426
PLK4 (polo like kinase 4) — robust z-score, no drug: 0.426
FOXP1 (forkhead box P1) — robust z-score, no drug: -0.585
PKM (pyruvate kinase M1/2) — robust z-score, no drug: 0.426
TRIO (trio Rho guanine nucleotide exchange factor) — robust z-score, no drug: 0.0142
EGFR (epidermal growth factor receptor) — robust z-score, no drug: -1.39
PFKL (phosphofructokinase, liver type) — robust z-score, no drug: 0.426
ABL2 (ABL proto-oncogene 2, non-receptor tyrosine kinase) — robust z-score, no drug: 0.426
PANK3 (pantothenate kinase 3) — robust z-score, no drug: 0.426
SBK1 (SH3 domain binding kinase 1) — robust z-score, no drug: 0.426
BPTF (bromodomain PHD finger transcription factor) — robust z-score, no drug: 0.426
MAPK14 (mitogen-activated protein kinase 14) — robust z-score, no drug: 0.426
APC (APC regulator of Wnt signaling pathway) — robust z-score, no drug: 0.426
TBK1 (TANK binding kinase 1) — robust z-score, no drug: 0.146
BRD4 (bromodomain containing 4) — robust z-score, no drug: 0.426
TSSK4 (testis specific serine kinase 4) — robust z-score, no drug: 0.426
CDKN2D (cyclin dependent kinase inhibitor 2D) — robust z-score, no drug: -0.386

Looked up above.
Value for SBK1 (SH3 domain binding kinase 1) under “robust z-score, no drug”: 0.426
MAPK14 (mitogen-activated protein kinase 14), robust z-score, no drug: 0.426
Result of BPTF (bromodomain PHD finger transcription factor) under “robust z-score, no drug”: 0.426
Result for PFKL (phosphofructokinase, liver type) in “robust z-score, no drug”: 0.426
Value of OBSCN under “robust z-score, no drug”: 0.426
